Measured values published in patent publication US20160322588A1, “Organic Transistor, Compound, Organic Semiconductor Material for Non-Light-Emitting Organic Semiconductor Device, Material for Organic Transistor, Coating Solution for Non-Light-Emitting Organic Semiconductor Device, and Organic Semiconductor Film for Non-Light-Emitting Organic Semiconductor Device” (FUJIFILM Corporation, priority 2014, published 2016).

Columns and labels:
[1] = FET characteristics of organic transistor element of Example 2 (semiconductor active layer formed using compound alone, bottom gate/bottom contact); details: source-drain −80 V; for Carrier mobility: compound alone cast from toluene, bottom gate/bottom contact, gate 20 V to −100 V, normal pressure/nitrogen; for Threshold voltage shift after repeated driving: compound alone, driven 100 times, gate +20 V to −100 V
[2] = FET characteristics of organic transistor element of Example 4 (bottom gate/top contact, octyltrichlorosilane-treated SiO2); details: for Carrier mobility: W=5 mm, L=80 μm, octyltrichlorosilane-treated SiO2 370 nm; for Threshold voltage shift after repeated driving: driven 100 times
[3] = FET characteristics of organic transistor element of Example 3 (semiconductor active layer formed using compound and binder PαMS together); details: for Carrier mobility: compound 1 mg with 1 mg PαMS binder, cast from toluene, bottom gate/bottom contact; for Threshold voltage shift after repeated driving: compound with PαMS binder, driven 100 times

Compound: CCCCCCCCc1cc2ccc3c(sc4c5ccc6cc(CCCCCCCC)sc6c5sc34)c2s1 [Compound 1]
- Carrier mobility [1]: 0.49 cm^2/Vs
- Threshold voltage shift after repeated driving [1]: A (|Vafter−Vbefore|≦5 V)
- Carrier mobility [2]: 0.64 cm^2/Vs
- Threshold voltage shift after repeated driving [2]: A (|Vafter−Vbefore|≦5 V)
- Carrier mobility [3]: 0.63 cm^2/Vs
- Threshold voltage shift after repeated driving [3]: A (|Vafter−Vbefore|≦5 V)

Compound: CCCCCCCCc1cc2c(ccc3c2sc2c4ccc5sc(CCCCCCCC)cc5c4sc32)s1 [Compound 2]
- Carrier mobility [1]: 0.32 cm^2/Vs
- Threshold voltage shift after repeated driving [1]: A (|Vafter−Vbefore|≦5 V)
- Carrier mobility [2]: 0.44 cm^2/Vs
- Threshold voltage shift after repeated driving [2]: A (|Vafter−Vbefore|≦5 V)
- Carrier mobility [3]: 0.42 cm^2/Vs
- Threshold voltage shift after repeated driving [3]: A (|Vafter−Vbefore|≦5 V)

Compound: CCCCCCCCCCCCc1cc2ccc3c(sc4c5ccc6cc(CCCCCCCCCCCC)sc6c5sc34)c2s1 [Compound 3]
- Carrier mobility [1]: 0.25 cm^2/Vs
- Threshold voltage shift after repeated driving [1]: A (|Vafter−Vbefore|≦5 V)
- Carrier mobility [3]: 0.32 cm^2/Vs
- Threshold voltage shift after repeated driving [3]: A (|Vafter−Vbefore|≦5 V)

Compound: CCCCCCCCCCCCc1cc2c(ccc3c2sc2c4ccc5sc(CCCCCCCCCCCC)cc5c4sc32)s1 [Compound 4]
- Carrier mobility [1]: 0.16 cm^2/Vs
- Threshold voltage shift after repeated driving [1]: A (|Vafter−Vbefore|≦5 V)
- Carrier mobility [3]: 0.25 cm^2/Vs
- Threshold voltage shift after repeated driving [3]: A (|Vafter−Vbefore|≦5 V)

Compound: CC(C)CCCC(C)CCc1cc2ccc3c(sc4c5ccc6cc(CCC(C)CCCC(C)C)sc6c5sc34)c2s1 (stereo not shown) [Compound 5]
- Carrier mobility [1]: 7.9 × 10^−2 cm^2/Vs
- Threshold voltage shift after repeated driving [1]: A (|Vafter−Vbefore|≦5 V)
- Carrier mobility [2]: 9.1 × 10^−2 cm^2/Vs
- Threshold voltage shift after repeated driving [2]: A (|Vafter−Vbefore|≦5 V)
- Carrier mobility [3]: 8.6 × 10^−2 cm^2/Vs
- Threshold voltage shift after repeated driving [3]: A (|Vafter−Vbefore|≦5 V)

Compound: CCCCCCCCC#Cc1cc2ccc3c(sc4c5ccc6cc(C#CCCCCCCCC)sc6c5sc34)c2s1 [Compound 29]
- Carrier mobility [1]: 1.5 × 10^−2 cm^2/Vs
- Threshold voltage shift after repeated driving [1]: A (|Vafter−Vbefore|≦5 V)
- Carrier mobility [2]: 3.3 × 10^−2 cm^2/Vs
- Threshold voltage shift after repeated driving [2]: A (|Vafter−Vbefore|≦5 V)
- Carrier mobility [3]: 2.5 × 10^−2 cm^2/Vs
- Threshold voltage shift after repeated driving [3]: A (|Vafter−Vbefore|≦5 V)

Compound: CCCCCCCCC#Cc1cc2c(ccc3c2sc2c4ccc5sc(C#CCCCCCCCC)cc5c4sc32)s1 [Compound 30]
- Carrier mobility [1]: 1.5 × 10^−2 cm^2/Vs
- Threshold voltage shift after repeated driving [1]: A (|Vafter−Vbefore|≦5 V)
- Carrier mobility [2]: 2.4 × 10^−2 cm^2/Vs
- Threshold voltage shift after repeated driving [2]: A (|Vafter−Vbefore|≦5 V)
- Carrier mobility [3]: 2.0 × 10^−2 cm^2/Vs
- Threshold voltage shift after repeated driving [3]: A (|Vafter−Vbefore|≦5 V)

Compound: CCCCCCCCOc1cc2ccc3c(sc4c5ccc6cc(OCCCCCCCC)sc6c5sc34)c2s1 [Compound 37]
- Carrier mobility [1]: 8.7 × 10^−3 cm^2/Vs
- Threshold voltage shift after repeated driving [1]: A (|Vafter−Vbefore|≦5 V)

Compound: CCCCCCCCOc1cc2c(ccc3c2sc2c4ccc5sc(OCCCCCCCC)cc5c4sc32)s1 [Compound 38]
- Carrier mobility [1]: 5.0 × 10^−3 cm^2/Vs
- Threshold voltage shift after repeated driving [1]: A (|Vafter−Vbefore|≦5 V)

Compound: CCCCCCCCCCCCCCc1cc2ccsc2c2sc3c(sc4c5sccc5cc(CCCCCCCCCCCCCC)c43)c12 [Compound 39]
- Carrier mobility [1]: 4.4 × 10^−3 cm^2/Vs
- Threshold voltage shift after repeated driving [1]: A (|Vafter−Vbefore|≦5 V)

Compound: CCCCCCCCCCCCCCc1cc2sccc2c2sc3c(sc4c5ccsc5cc(CCCCCCCCCCCCCC)c43)c12 [Compound 40]
- Carrier mobility [1]: 4.2 × 10^−3 cm^2/Vs
- Threshold voltage shift after repeated driving [1]: A (|Vafter−Vbefore|≦5 V)

Compound: CCCCCCCCc1cc2ccc3c(sc4c5ccc6ccsc6c5sc34)c2s1 [Compound 43]
- Carrier mobility [1]: 4.0 × 10^−3 cm^2/Vs
- Threshold voltage shift after repeated driving [1]: A (|Vafter−Vbefore|≦5 V)

Compound: CCCCCCCCc1cc2c(ccc3c2sc2c4ccc5sccc5c4sc32)s1 [Compound 44]
- Carrier mobility [1]: 3.8 × 10^−3 cm^2/Vs
- Threshold voltage shift after repeated driving [1]: A (|Vafter−Vbefore|≦5 V)

Compound: Cn1ccc2c3sc4c5ccc6c(ccn6C)c5sc4c3ccc21 [compound 1, reference compound]
- Carrier mobility [1]: 4.4 × 10^−4 cm^2/Vs
- Threshold voltage shift after repeated driving [1]: C (|Vafter−Vbefore|>10V)
- Carrier mobility [2]: 4.8 × 10^−5 cm^2/Vs
- Threshold voltage shift after repeated driving [2]: C (|Vafter−Vbefore|>10V)
- Carrier mobility [3]: 6.3 × 10^−4 cm^2/Vs
- Threshold voltage shift after repeated driving [3]: C (|Vafter−Vbefore|>10V)

Compound: CCc1cc2cc3c(cc2s1)sc1c2cc4cc(CC)sc4cc2sc31 [compound 2, reference compound]
- Carrier mobility [1]: 8.4 × 10^−5 cm^2/Vs
- Threshold voltage shift after repeated driving [1]: B (5 V<|Vafter−Vbefore|≦10 V)
- Carrier mobility [3]: 1.0 × 10^−4 cm^2/Vs
- Threshold voltage shift after repeated driving [3]: B (5 V<|Vafter−Vbefore|≦10 V)

Compound: CCCC(C)n1ccc2c3sc4c5ccc6c(ccn6C(C)CCC)c5sc4c3ccc21 (stereo not shown) [compound 3, reference compound]
- Carrier mobility [1]: 1.2 × 10^−6 cm^2/Vs
- Threshold voltage shift after repeated driving [1]: C (|Vafter−Vbefore|>10V)

Compound: c1cc2cc3sc4c5cc6sccc6cc5sc4c3cc2s1 [compound 4, reference compound]
- Carrier mobility [1]: 4.8 × 10^−5 cm^2/Vs
- Threshold voltage shift after repeated driving [1]: B (5 V<|Vafter−Vbefore|≦10 V)
